Measured values reported in PMC11111408, “Concurrent inhibition of oncogenic and wild-type RAS-GTP for cancer therapy” (Nature, 2024).
This continues a long series; more values of the same kind are listed elsewhere.

Tested on: PRISM DNA-barcoded human tumour cell lines
Assay: PRISM pooled cell viability assay;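 also: 8 threefold dilutions from 10 µM with 5 days of exposure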
Assay type: cell-based
Set-up: Area under the curve (AUC): scale not given here
Conditions: for PRISM AUC: KRAS MUT
Method: Cells were then lysed in TCL mRNA lysis buffer, and then PCR with reverse transcription was performed. Detection of the barcodes and univariate and multivariate analysis was then performed as previously described. Data analysis is described in the Supplementary Methods. Up-to-date code for our analysis is at the github link: https://github.com/cmap/dockerized_mts.
For every gene with non-silent mutations in at least four cell-lines, we compared the AUC values between cells with and without those mutations using a t-test. This analysis was carried out for: (i) the full dataset; (ii) excluding cell lines with non-silent KRAS mutations; and (iii) excluding cell lines that have either KRAS or NRAS non-silent mutations.

[1] = OCIAML5_HAEMATOPOIETIC_AND_LYMPHOID_TISSUE
[2] = PL21_HAEMATOPOIETIC_AND_LYMPHOID_TISSUE

CCn1c(-c2cc(N3CCN(C4CC4)CC3)cnc2[C@H](C)OC)c2c3cc(ccc31)-c1csc(n1)C[C@H](NC(=O)[C@H]1[C@@H]3COC[C@@H]31)C(=O)N1CCC[C@H](N1)C(=O)OCC(C)(C)C2 [RMC-7977]
Area under the curve (AUC) (NCIH2172_LUNG): 0.8328 | Area under the curve (AUC) (NCIH2228_LUNG): 0.5732 | Area under the curve (AUC) (NCIH2347_LUNG): 0.3956 | PRISM AUC (NCIH2347_LUNG): 0.4505 | Area under the curve (AUC) (NCIH2444_LUNG): 0.4967 | Area under the curve (AUC) (NCIH2452_PLEURA): 0.9903 | Area under the curve (AUC) (NCIN87_STOMACH): 0.5798 | Area under the curve (AUC) (NCO2_HAEMATOPOIETIC_AND_LYMPHOID_TISSUE): 0.7331 | Area under the curve (AUC) (NIHOVCAR3_OVARY): 0.7636 | Area under the curve (AUC) (NOMO1_HAEMATOPOIETIC_AND_LYMPHOID_TISSUE): 0.3935 | Area under the curve (AUC) (NOZ_LIVER): 0.5803 | Area under the curve (AUC) (NP2_CENTRAL_NERVOUS_SYSTEM): 0.9956 | Area under the curve (AUC) (NP3_CENTRAL_NERVOUS_SYSTEM): 0.8306 | Area under the curve (AUC) (NP5_CENTRAL_NERVOUS_SYSTEM): 0.926 | Area under the curve (AUC) (NUDHL1_HAEMATOPOIETIC_AND_LYMPHOID_TISSUE): 0.3008 | Area under the curve (AUC) (NUGC3_STOMACH): 0.4056 | Area under the curve (AUC) (NUGC4_STOMACH): 0.4996 | Area under the curve (AUC) (NZOV9_OVARY): 0.6452 | Area under the curve (AUC) (OACM51_OESOPHAGUS): 0.5083 | Area under the curve (AUC) (OAW42_OVARY): 0.6038 | Area under the curve (AUC) (OC314_OVARY): 0.851 | Area under the curve (AUC) (OC316_OVARY): 0.8555 | Area under the curve (AUC) (OCIAML2_HAEMATOPOIETIC_AND_LYMPHOID_TISSUE): 0.6487 | Area under the curve (AUC) (OCIAML3_HAEMATOPOIETIC_AND_LYMPHOID_TISSUE): 0.3059 | Area under the curve (AUC) [1]: 0.5147 | PRISM AUC [1]: 0.2689 | Area under the curve (AUC) (OCIC4P_OVARY): 0.8661 | Area under the curve (AUC) (OCIC5X_OVARY): 0.7782 | Area under the curve (AUC) (OCILY3_HAEMATOPOIETIC_AND_LYMPHOID_TISSUE): 0.8848 | Area under the curve (AUC) (OCILY18_HAEMATOPOIETIC_AND_LYMPHOID_TISSUE): 0.6701 | Area under the curve (AUC) (OCILY19_HAEMATOPOIETIC_AND_LYMPHOID_TISSUE): 0.4381 | Area under the curve (AUC) (OCILY132_HAEMATOPOIETIC_AND_LYMPHOID_TISSUE): 0.8581 | Area under the curve (AUC) (OCIM1_HAEMATOPOIETIC_AND_LYMPHOID_TISSUE): 0.6092 | Area under the curve (AUC) (OCIP5X_OVARY): 0.9315 | Area under the curve (AUC) (OCUG1_BILIARY_TRACT): 0.5079 | Area under the curve (AUC) (OE19_OESOPHAGUS): 0.5885 | Area under the curve (AUC) (OE21_OESOPHAGUS): 0.6891 | Area under the curve (AUC) (OE33_OESOPHAGUS): 0.6044 | Area under the curve (AUC) (ONCODG1_OVARY): 0.8782 | Area under the curve (AUC) (ONDA9_CENTRAL_NERVOUS_SYSTEM): 0.7971 | Area under the curve (AUC) (ONS76_CENTRAL_NERVOUS_SYSTEM): 0.4914 | Area under the curve (AUC) (OSC20_UPPER_AERODIGESTIVE_TRACT): 0.6582 | Area under the curve (AUC) (OSRC2_KIDNEY): 0.8752 | Area under the curve (AUC) (OUMS23_LARGE_INTESTINE): 0.9453 | Area under the curve (AUC) (OV7_OVARY): 0.5413 | Area under the curve (AUC) (OV17R_OVARY): 0.99 | Area under the curve (AUC) (OV56_OVARY): 0.8075 | Area under the curve (AUC) (OVCAR8_OVARY): 0.8791 | PRISM AUC (OVCAR8_OVARY): 0.804 | Area under the curve (AUC) (OVISE_OVARY): 0.8449 | Area under the curve (AUC) (OVK18_OVARY): 0.8289 | PRISM AUC (OVK18_OVARY): 0.6556 | Area under the curve (AUC) (OVKATE_OVARY): 0.9563 | Area under the curve (AUC) (OVTOKO_OVARY): 0.8023 | Area under the curve (AUC) (OZ_BILIARY_TRACT): 0.5442 | Area under the curve (AUC) (P12ICHIKAWA_HAEMATOPOIETIC_AND_LYMPHOID_TISSUE): 0.4183 | Area under the curve (AUC) (PA1_OVARY): 0.9599 | Area under the curve (AUC) (PACADD119_PANCREAS): 0.6424 | Area under the curve (AUC) (PACADD137_PANCREAS): 0.6574 | Area under the curve (AUC) (PACADD161_PANCREAS): 0.3745 | Area under the curve (AUC) (PANC1_PANCREAS): 0.8561 | Area under the curve (AUC) (PANC0203_PANCREAS): 0.4438 | Area under the curve (AUC) (PANC0327_PANCREAS): 0.4406 | Area under the curve (AUC) (PANC0403_PANCREAS): 0.4691 | Area under the curve (AUC) (PANC0504_PANCREAS): 0.3891 | Area under the curve (AUC) (PANC0813_PANCREAS): 0.6032 | Area under the curve (AUC) (PANC1005_PANCREAS): 0.5716 | Area under the curve (AUC) (PATU8902_PANCREAS): 0.5642 | Area under the curve (AUC) (PATU8988S_PANCREAS): 0.3124 | Area under the curve (AUC) (PATU8988T_PANCREAS): 0.6698 | Area under the curve (AUC) (PC3_PROSTATE): 0.9567 | Area under the curve (AUC) (PC14_LUNG): 0.6329 | Area under the curve (AUC) (PEA1_OVARY): 0.9425 | Area under the curve (AUC) (PECAPJ15_UPPER_AERODIGESTIVE_TRACT): 0.6157 | Area under the curve (AUC) (PECAPJ41CLONED2_UPPER_AERODIGESTIVE_TRACT): 0.5902 | Area under the curve (AUC) (PECAPJ49_UPPER_AERODIGESTIVE_TRACT): 0.5324 | Area under the curve (AUC) (PEDS005TPFAD_KIDNEY): 0.523 | Area under the curve (AUC) (PEDS005TSUSP_KIDNEY): 0.6711 | Area under the curve (AUC) (PEDS015T_SOFT_TISSUE): 0.8335 | Area under the curve (AUC) (PF382_HAEMATOPOIETIC_AND_LYMPHOID_TISSUE): 0.6811 | Area under the curve (AUC) (PFSK1_CENTRAL_NERVOUS_SYSTEM): 1 | Area under the curve (AUC) (PK1_PANCREAS): 0.5167 | Area under the curve (AUC) (PK8_PANCREAS): 0.4344 | Area under the curve (AUC) (PK45H_PANCREAS): 0.6328 | Area under the curve (AUC) (PK59_PANCREAS): 0.5978 | Area under the curve (AUC) [2]: 0.4594 | PRISM AUC [2]: 0.3247 | Area under the curve (AUC) (PLCPRF5_LIVER): 0.7305 | Area under the curve (AUC) (PMFKO14_LARGE_INTESTINE): 0.4169 | Area under the curve (AUC) (PRISM cell line TE9_OESOPHAGUS): 0.6232 | Area under the curve (AUC) (PRISM cell line TEN_ENDOMETRIUM): 0.8542 | Area under the curve (AUC) (PRISM cell line TF1_HAEMATOPOIETIC_AND_LYMPHOID_TISSUE): 0.4071 | Area under the curve (AUC) (PRISM cell line TFK1_BILIARY_TRACT): 0.8617 | Area under the curve (AUC) (PRISM cell line TGBC1TKB_BILIARY_TRACT): 0.8572 | Area under the curve (AUC) (PRISM cell line TGBC18TKB_LARGE_INTESTINE): 0.6068 | Area under the curve (AUC) (PRISM cell line TGBC52TKB_BILIARY_TRACT): 0.543 | Area under the curve (AUC) (PRISM cell line TGW_AUTONOMIC_GANGLIA): 0.5407 | Area under the curve (AUC) (PRISM cell line THP1_HAEMATOPOIETIC_AND_LYMPHOID_TISSUE): 0.828 | Area under the curve (AUC) (PRISM cell line TM31_CENTRAL_NERVOUS_SYSTEM): 0.9195 | Area under the curve (AUC) (PRISM cell line TM87_SOFT_TISSUE): 0.7072 | Area under the curve (AUC) (PRISM cell line TOV21G_OVARY): 0.6422 | Area under the curve (AUC) (PRISM cell line TOV112D_OVARY): 0.6933 | Area under the curve (AUC) (PRISM cell line TT1TKB_LARGE_INTESTINE): 0.3579 | Area under the curve (AUC) (PRISM cell line TT2609C02_THYROID): 0.5333 | Area under the curve (AUC) (PRISM cell line TTC442_SOFT_TISSUE): 0.784 | Area under the curve (AUC) (PRISM cell line TTC549_SOFT_TISSUE): 0.7285 | Area under the curve (AUC) (PRISM cell line TTC642_SOFT_TISSUE): 0.7974 | Area under the curve (AUC) (PRISM cell line TTC709_SOFT_TISSUE): 0.7714 | Area under the curve (AUC) (PRISM cell line TTC1240_SOFT_TISSUE): 0.6529 | Area under the curve (AUC) (PRISM cell line TT_OESOPHAGUS): 0.7209 | Area under the curve (AUC) (PRISM cell line TT_THYROID): 1 | Area under the curve (AUC) (PRISM cell line TYKNU_OVARY): 0.5228 | Area under the curve (AUC) (PRISM cell line U2OS_BONE): 0.6419 | Area under the curve (AUC) (PRISM cell line U87MG_CENTRAL_NERVOUS_SYSTEM): 0.8442 | Area under the curve (AUC) (PRISM cell line U118MG_CENTRAL_NERVOUS_SYSTEM): 0.7908 | Area under the curve (AUC) (PRISM cell line U178_CENTRAL_NERVOUS_SYSTEM): 0.7553 | Area under the curve (AUC) (PRISM cell line U251MG_CENTRAL_NERVOUS_SYSTEM): 0.6535 | Area under the curve (AUC) (PRISM cell line U266B1_HAEMATOPOIETIC_AND_LYMPHOID_TISSUE): 0.9023
